Test results from PMC13156314.

Target: USP18-Flag truncation mutant: ubiquitin carboxyl-terminal hydrolase (UCH) domain (human)
Test: co-IP; tagged bait (anti-Flag or anti-Myc) from transfected SUNE1 or HEK293T lysates; co-transfected tagged or endogenous partner found by western blot

binding: binds
B1: TRIM29 (endogenous) (protein, UniProt Q14134 1-588)
chain: MEAADASRSNGSSPEARDARSPSGPSGSLENGTKADGKDAKTTNGHGGEAAEGKSLGSALKPGEGRSALFAGNEWRRPIIQFVESGDDKNSNYFSMDSMEGKRSPYAGLQLGAAKKPPVTFAEKGELRKSIFSESRKPTVSIMEPGETRRNSYPRADTGLFSRSKSGSEEVLCDSCIGNKQKAVKSCLVCQASFCELHLKPHLEGAAFRDHQLLEPIRDFEARKCPVHGKTMELFCQTDQTCICYLCMFQEHKNHSTVTVEEAKAEKETELSLQKEQLQLKIIEIEDEAEKWQKEKDRIKSFTTNEKAILEQNFRDLVRDLEKQKEEVRAALEQREQDAVDQVKVIMDALDERAKVLHEDKQTREQLHSISDSVLFLQEFGALMSNYSLPPPLPTYHVLLEGEGLGQSLGNFKDDLLNVCMRHVEKMCKADLSRNFIERNHMENGGDHRYVNNYTNSFGGEWSAPDTMKRYSMYLTPKGGVRTSYQPSSPGRFTKETTQKNFNNLYGTKGNYTSRVWEYSSSIQNSDNDLPVVQGSSSFSLKGYPSLMRSQSPKAQPQTWKSGKQTMLSHYRPFYVNKGNGIGSNEAP

Results are given in words; binding and its absence hold for the method and conditions named. In cells and extracts the contact can be indirect. Binding can be weak; no strength is given.
